From publication PMC4406087, “Remaining challenges in cellular flavin cofactor homeostasis and flavoprotein biogenesis” (Frontiers in Chemistry, 2015) come the findings set out here.

Sequences of proteins named here, by UniProt entry; tags and fusion partners are left off. A change or cut given only in a name is not applied to a line headed by its entry. Residues count along the entry.
UniProt Q63342: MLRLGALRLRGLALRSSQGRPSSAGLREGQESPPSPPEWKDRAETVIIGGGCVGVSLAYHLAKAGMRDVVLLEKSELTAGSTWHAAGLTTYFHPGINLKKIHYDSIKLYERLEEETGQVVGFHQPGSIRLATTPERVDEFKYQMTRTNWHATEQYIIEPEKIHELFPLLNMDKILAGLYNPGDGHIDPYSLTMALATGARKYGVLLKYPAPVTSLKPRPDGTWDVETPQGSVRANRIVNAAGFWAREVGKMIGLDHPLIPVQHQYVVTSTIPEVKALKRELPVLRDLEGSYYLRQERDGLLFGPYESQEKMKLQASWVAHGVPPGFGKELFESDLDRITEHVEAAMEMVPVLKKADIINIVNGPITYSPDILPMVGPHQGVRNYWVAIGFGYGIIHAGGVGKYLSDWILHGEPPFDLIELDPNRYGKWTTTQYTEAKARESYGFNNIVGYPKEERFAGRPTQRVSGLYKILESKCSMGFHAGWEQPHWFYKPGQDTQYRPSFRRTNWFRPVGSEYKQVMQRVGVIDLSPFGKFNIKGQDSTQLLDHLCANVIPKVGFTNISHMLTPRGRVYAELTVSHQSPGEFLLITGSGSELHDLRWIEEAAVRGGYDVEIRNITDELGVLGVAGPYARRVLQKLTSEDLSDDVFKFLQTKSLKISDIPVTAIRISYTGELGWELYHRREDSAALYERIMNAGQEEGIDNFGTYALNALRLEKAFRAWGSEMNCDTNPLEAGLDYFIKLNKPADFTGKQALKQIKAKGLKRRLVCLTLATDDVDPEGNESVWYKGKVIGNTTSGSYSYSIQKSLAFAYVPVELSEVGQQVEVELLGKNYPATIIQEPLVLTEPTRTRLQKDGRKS
UniProt P26772: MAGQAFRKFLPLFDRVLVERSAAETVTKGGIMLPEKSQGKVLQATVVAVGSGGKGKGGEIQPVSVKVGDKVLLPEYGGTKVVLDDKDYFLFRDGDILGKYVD
UniProt P63039, residues 27-573: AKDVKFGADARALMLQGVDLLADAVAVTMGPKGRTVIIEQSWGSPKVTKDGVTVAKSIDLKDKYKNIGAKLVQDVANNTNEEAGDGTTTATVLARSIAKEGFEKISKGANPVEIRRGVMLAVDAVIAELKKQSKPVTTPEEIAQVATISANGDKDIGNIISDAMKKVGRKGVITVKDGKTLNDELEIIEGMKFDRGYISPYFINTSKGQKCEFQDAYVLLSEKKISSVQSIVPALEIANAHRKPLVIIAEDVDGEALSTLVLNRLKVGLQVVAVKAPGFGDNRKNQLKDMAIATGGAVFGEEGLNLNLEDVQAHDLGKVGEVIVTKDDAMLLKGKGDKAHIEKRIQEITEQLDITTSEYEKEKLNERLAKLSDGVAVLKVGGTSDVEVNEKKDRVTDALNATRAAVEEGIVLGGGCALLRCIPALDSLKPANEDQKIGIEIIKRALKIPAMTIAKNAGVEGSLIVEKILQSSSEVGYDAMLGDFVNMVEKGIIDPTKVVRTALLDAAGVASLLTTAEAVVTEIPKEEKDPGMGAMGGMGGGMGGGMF

In this assay the target is recombinant 6His-apo-Me2GlyDH of the re-binding experiment (rat) (UniProt Q63342). Nature of the assay: pull-down; 6His-apo-Me2GlyDH (10 μg) incubated 1 h at 37°C in 50 mM Tris-HCl pH 7.5, 5 mM MgCl2, 0.5% Triton X-100, 5 mM ATP, 20 μM FAD with rat liver mitochondrial matrix or its DEAE fractions (100 μg); re-isolated on Ni-Chelating Sepharose, washed with 50 mM imidazole, eluted with 500 mM …; immunoblot with anti-Hsp60 and anti-Hsp10; only the target purified. (In general: Immunoblotting shows a protein as a band on a membrane.)

These are yes or no findings as the source states them, for the method shown. In cells and extracts the contact can be indirect. Binding can be weak; no strength is given.

For the substance “Hsp10 of rat liver mitochondrial matrix (from UniProt P26772 1-102)”, the binding result is given as “binds”.

Take “Hsp60 of rat liver mitochondrial matrix (from UniProt P63039 27-573)”: the binding entry is “binds”.
